Data: PMC5841405
No constants are given. Whether binding was seen depends on the method and setting.

Amino acid sequences for entries named in this document (tags omitted). A change or cut given only in a name is not applied to a line headed by its entry. Residues count along the entry.
UniProt Q9UJC3, residues 11-166: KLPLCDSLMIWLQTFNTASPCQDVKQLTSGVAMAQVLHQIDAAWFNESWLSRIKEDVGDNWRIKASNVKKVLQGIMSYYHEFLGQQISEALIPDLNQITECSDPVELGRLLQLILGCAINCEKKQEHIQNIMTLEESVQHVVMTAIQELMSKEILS

Molecular target: Hook1_(11–166) (human) (UniProt Q9UJC3)
Test: SEC-MALS; Superose 6 10/300 GL, 20 mM Tris pH 7.5, 100 mM NaCl, 1 mM DTT; both purified

Hook1_(11–166) (from UniProt Q9UJC3-1 11-166) (domain or fragment)
binding: no binding
